The target of assay [1] is T1, FLAG-RBM39 (human) (UniProt Q14498).
T1 sequence: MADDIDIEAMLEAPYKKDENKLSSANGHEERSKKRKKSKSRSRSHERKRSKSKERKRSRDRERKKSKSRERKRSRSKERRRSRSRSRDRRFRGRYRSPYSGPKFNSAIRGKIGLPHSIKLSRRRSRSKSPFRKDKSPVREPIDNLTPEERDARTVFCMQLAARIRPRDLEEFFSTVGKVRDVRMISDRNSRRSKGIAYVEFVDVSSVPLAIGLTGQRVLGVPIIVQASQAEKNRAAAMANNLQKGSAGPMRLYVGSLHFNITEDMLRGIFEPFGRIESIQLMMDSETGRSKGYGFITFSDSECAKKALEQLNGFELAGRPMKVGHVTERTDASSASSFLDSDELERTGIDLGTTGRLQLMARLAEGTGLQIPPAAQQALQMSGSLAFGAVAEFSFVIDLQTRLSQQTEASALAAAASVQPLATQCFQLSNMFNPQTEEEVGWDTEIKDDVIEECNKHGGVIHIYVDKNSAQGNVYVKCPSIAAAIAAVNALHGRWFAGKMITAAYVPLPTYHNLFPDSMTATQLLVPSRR
In words: co-IP; FLAG immunoprecipitation (FLAG-M2 matrix) of FLAG-RBM39 constructs from total extracts of transiently transfected HeLa cells; low-salt buffer with 0.5% Triton-X-100, NaCl adjusted to 150 mM; western blot with anti-SF3A3 and anti-U1-C. In general terms: A western blot detects proteins with antibodies after separation by electrophoresis.

Sequences of proteins named here, by UniProt entry; tags and fusion partners are left off.
UniProt P09012: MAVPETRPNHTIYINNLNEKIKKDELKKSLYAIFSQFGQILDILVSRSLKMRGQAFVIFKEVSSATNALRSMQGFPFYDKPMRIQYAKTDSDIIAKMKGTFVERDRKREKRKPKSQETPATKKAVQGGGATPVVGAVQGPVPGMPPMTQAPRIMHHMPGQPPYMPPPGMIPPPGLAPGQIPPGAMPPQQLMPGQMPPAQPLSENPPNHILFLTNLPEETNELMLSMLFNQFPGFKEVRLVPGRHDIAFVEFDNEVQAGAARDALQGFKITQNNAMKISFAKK
UniProt P09234: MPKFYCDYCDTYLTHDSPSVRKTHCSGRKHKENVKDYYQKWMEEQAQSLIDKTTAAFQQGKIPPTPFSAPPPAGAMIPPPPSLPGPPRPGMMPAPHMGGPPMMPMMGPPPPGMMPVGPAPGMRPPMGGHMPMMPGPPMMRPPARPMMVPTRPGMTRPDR

Assay [2] has as its target U1-A (human (endogenous in HeLa)) (UniProt P09012). In words: co-IP; endogenous proteins from HeLa nuclear extract; antibody against the bait (anti-SmB/B' Y12, anti-U1A or anti-RBM39) on Protein G Dynabeads; TBS-0.05% NP-40, 1.5 h, 4 °C; without nuclease (RNAse inhibitor); western blot.

This is an account of results in PMC10477243, “Molecular basis of RNA-binding and autoregulation by the cancer-associated splicing factor RBM39” (Nature Communications, 2023).

These are yes or no findings as the source states them, for the method shown. Binding seen in cells or lysates may run through a third protein. Some results given as binding are weak or reduced against the parent protein; the word gives no strength. For some assays here: Where a sequence is shown, tags or fusion partners need not be part of it.

Take U1-C (from UniProt P09234 1-159): the binding result in assay [1] is “no binding”; in assay [2], “binds”.
